No constants are given. Whether binding was seen depends on the method and setting. Some results given as binding are weak or reduced against the parent protein; the word gives no strength.

Amino acid sequences for entries named in this document (tags omitted). Residues count along the entry.
UniProt P36544, residues 23-502: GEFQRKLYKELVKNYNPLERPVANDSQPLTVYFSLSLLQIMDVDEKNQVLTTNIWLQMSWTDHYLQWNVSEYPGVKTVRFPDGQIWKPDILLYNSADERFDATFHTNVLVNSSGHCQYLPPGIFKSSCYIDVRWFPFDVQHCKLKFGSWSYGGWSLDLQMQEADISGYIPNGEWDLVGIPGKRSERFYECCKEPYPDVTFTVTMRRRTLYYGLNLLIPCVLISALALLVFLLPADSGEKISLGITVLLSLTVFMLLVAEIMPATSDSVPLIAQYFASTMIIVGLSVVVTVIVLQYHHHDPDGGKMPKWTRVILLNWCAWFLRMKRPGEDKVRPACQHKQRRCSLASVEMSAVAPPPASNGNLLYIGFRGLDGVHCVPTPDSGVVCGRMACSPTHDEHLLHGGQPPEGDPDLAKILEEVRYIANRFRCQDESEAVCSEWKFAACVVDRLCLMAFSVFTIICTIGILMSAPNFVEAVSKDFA
UniProt P60615, residues 22-95: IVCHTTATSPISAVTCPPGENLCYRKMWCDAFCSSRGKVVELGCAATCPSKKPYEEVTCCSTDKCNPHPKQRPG

In the assay the target is human α7 nicotinic acetylcholine receptor (human) (UniProt P36544). The assay is described as follows: radioligand binding; only the binder purified.

Consider “radioactive α-bungarotoxin (from UniProt P60615 22-95)”, for which the binding result is reported as “binds”.

The values above are taken from article PMC3113800.
